No constants are given. Whether binding was seen depends on the method and setting. Some results given as binding are weak or reduced against the parent protein; the word gives no strength.
B1: 413G05 (antibody, human IgG1, kappa, V domains shown)
VH: QVQLVESGGGLVKPGGSLRLSCAASGFTFSDYYMSWIRQVPGKGLEWVSYISTSGSTIYYADSVKGRFTISRDNAKNSLYLQMNSLRAEDAAVYHCARGITGTNFYHYGLGVWGQGTTVTVSS
VL: DIQMTQSPSSVSASVGDRVTITCRASQGINSWLAWYQQKPGKAPKLLIYAASTLQSGVPSRFSGSGSGADFTLTISSLQPEDFATYYCQQVNSFPLTFGGGTKVEIKR
B2: 416E01 (antibody, V domains shown)
VH: EVQLAESGGGLVQPGGSLRLSCAASGFTFSNYAMSWVRQTPGKGLEWVSAISFSGGTTYYADSVKGRFTISRDNSKNTLYLHMNSLRADDTAVYYCAKDEAPAGATFFDSWGQGTLVTVSS
VL: DIQMTQSPSSVSASVGDRVTITCRASQGIRRWLAWYQQKPGKAPKLLISGASSLQSGVPSRFSGSGSGTDFTLIITSLQPEDFATYYCQQANSFPITFGQGTRLEIK

By UniProt entry, the sequences of proteins in these tests, tags left out. Where a name states a change or a piece, a line headed by the entry shows the natural chain unless it says otherwise.
UniProt Q9NZQ7: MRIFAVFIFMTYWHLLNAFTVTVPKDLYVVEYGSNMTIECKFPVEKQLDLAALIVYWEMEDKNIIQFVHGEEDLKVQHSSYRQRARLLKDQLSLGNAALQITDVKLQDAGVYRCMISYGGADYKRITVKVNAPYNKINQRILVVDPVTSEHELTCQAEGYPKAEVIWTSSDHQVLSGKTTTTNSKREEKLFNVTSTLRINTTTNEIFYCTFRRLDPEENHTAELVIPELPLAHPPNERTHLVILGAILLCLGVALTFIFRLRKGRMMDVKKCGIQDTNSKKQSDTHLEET

Key:
[1] = target: cynomolgus PD-L1 expressed on CHO-S cells (cynomolgus monkey); test: flow cytometry on CHO-S cells transfected with cynomolgus PD-L1
Human PD-L1 His (human) = Human PD-L1 His (human) (UniProt Q9NZQ7); test: SPR 25C and 37C

Row | Binder | binding [1] | binding (Human PD-L1 His (human))
1 | B1 | binds | binds
2 | B2 | binds | binds

Source: US11965026
